Measured values reported in publication PMC8608314.
No constants are given. Whether binding was seen depends on the method and setting. In cells and extracts the contact can be indirect. These calls come from enrichment with a bait or labelling near it, and not all partners need be listed. For part of these data: No binding means not detected with the bait. One block for each molecule: values may come before it.

The chains behind the UniProt entries cited, without tags or fusion partners. Where a name states a change or a piece, a line headed by the entry shows the natural chain unless it says otherwise.
UniProt Q386T3: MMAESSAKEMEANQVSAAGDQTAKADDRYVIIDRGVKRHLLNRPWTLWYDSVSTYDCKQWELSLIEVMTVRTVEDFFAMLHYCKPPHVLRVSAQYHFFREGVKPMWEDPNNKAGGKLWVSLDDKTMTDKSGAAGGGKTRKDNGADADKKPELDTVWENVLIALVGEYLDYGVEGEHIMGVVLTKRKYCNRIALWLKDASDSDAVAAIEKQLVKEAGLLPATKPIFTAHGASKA
UniProt Q38DR9: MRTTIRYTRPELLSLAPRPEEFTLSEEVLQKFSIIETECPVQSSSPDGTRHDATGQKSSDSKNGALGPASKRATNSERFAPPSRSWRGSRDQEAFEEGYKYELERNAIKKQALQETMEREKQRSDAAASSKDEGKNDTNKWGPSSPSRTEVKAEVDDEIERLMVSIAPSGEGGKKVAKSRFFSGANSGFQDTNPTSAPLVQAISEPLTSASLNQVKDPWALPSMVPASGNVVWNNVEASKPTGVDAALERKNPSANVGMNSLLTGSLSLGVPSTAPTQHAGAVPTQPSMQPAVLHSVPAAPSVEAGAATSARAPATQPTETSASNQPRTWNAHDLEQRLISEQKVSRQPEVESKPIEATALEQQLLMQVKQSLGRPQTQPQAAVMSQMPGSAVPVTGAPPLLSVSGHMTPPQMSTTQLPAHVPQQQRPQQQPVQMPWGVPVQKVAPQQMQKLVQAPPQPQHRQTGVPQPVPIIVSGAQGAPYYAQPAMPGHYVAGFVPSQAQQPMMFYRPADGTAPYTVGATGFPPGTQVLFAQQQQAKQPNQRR

Tests used:
[1] = biological target: EIF4E1-PTP (Trypanosoma brucei) (UniProt Q386T3); assay: affinity purification with mass spectrometry; procyclic forms with both 4EIP gene copies (+4EIP); EIF4E1-PTP or GFP-PTP (control) captured from lysate on IgG magnetic beads, 150 mM KCl, 4°C, four washes, release by TEV cleavage, quantitative LC-MS2; three preparations
[2] = biological target: EIF4E1-PTP (Trypanosoma brucei) (UniProt Q386T3); assay: affinity purification with mass spectrometry; procyclic forms lacking 4EIP (4EIP knockout, -4EIP); EIF4E1-PTP captured from lysate on IgG magnetic beads, 150 mM KCl, 4°C, four washes, release by TEV cleavage, quantitative LC-MS2; three preparations

binding [1]: binds
Molecule: 4E-interacting protein 4EIP (from UniProt Q38DR9)

binding [1]: binds
B1: ERF1 eukaryotic peptide chain release factor subunit (protein, UniProt Q9NAX8 1-452)
chain: MTDHELSESEKAIERYKVKKLIQMLESARGMGTSVISIYMTPKEQISGMVTKLNNEYGTASNIKSHTNKLSVQSAITASLGRLKQYNRLPPNGLLLYCGTVLTAENKEKKLTLDIEPFKPVSRSLYLCDNKFHTEELHRMLESDEKFGFIVVDGSGTTYATLCGSVKEKLSSFTVELPKKHGRGGQSKNRFARIRMERRHNYLRKVAEGATQLFITNDRPNIVGLVLAGSAEFKEVLYQSDLFDPRLKAIVVKVVDVAHPGDVGLNQAIDLAADALSGVKLVQEKKLLQGFFDQIACDTQLYCFGVQDTLKCLEAGAVETLIVYEDLNIYRYTVVKNRGADDEETFVHVMSEEEAKRSNIHMQESGKTRNEIEQEDFVDWLATNYRKFGCALELITNRSQEGTQFVRGFGGIGGVLRYKLDIIALRDVEKKEDDEERIAANNEEFDFDDDFM
binding [2]: no binding (only in procyclic forms lacking 4EIP)
